Laboratory results published in patent US5475029A, “Farnesyl compounds as cholesterol lowering agents” (The Board of Trustees of the Leland Stanford Junior …, priority 1993, dated 1995).
At least one compound was matched to its structure with a doubt left.

Columns and labels:
HMGal = conditions: 20 mM, previous studies; cited from earlier work
total cellular protein = assay: Total cellular protein synthesis (TCA-precipitable counts); format: cell-based; conditions: 20 mM
Procedure: Measurement of HMGal and HMG-CoA Reductase Synthesis Rates Cells plated into 60×15 mm dishes were grown in 5% LPS MEM with 0.25 mg/ml active geneticin for 24 hours. These cells were washed with PBS and grown for 24 hours in 5% LPS MEM supplemented with 0.25 mg/ml active geneticin, 10 μM compactin and 0.1 mM mevalonate. After 24 hours, the medium was removed, the cells were washed with PBS and the medium was replaced with methionine-free MEM supplemented with 5% LPS, 250 μg/ml of active geneticin, 10 μM compactin, and 0.1 mM mevalonate. In addition, 20 mM mevalonate or 10 μg/ml farnesyl acetate was included in those plates previously treated with these compounds. […] Cells were washed, lysed and the HMGal and HMG-CoA reductase proteins were immunoprecipitated, subjected to SDS-PAGE and quantified. […]
Farnesyl compounds reduce translation and stimulate degradation of HMG-CoA reductase and HMGal A reduction in HMGal specific activity triggered by the farnesyl compounds could have been the result of a decrease in HMGal synthesis, an increase in HMGal degradation, or a combination of changes in both the synthesis and degradation rates. In order to test whether the farnesyl compounds impact synthesis, the rates of HMGal, HMG-CoA reductase, and total cellular protein synthesis were measured by [^35 S]methionine incorporation in the presence and absence of 10 μg/ml farnesyl acetate.

HMG-CoA reductase = conditions: 20 mM, previous studies; cited from earlier work

CC(O)(CCO)CC(=O)O (stereo not drawn) [mevalonate, reference compound]
decrease in the half-life of HMGal (HMGal): 40% | effect on total protein synthesis (TCA-precipitable counts) (total cellular protein): Neither farnesyl acetate nor mevalonate have a significant effect | decrease in the half-life of HMG-CoA reductase (HMG-CoA reductase): 40%
